# Assay: general procedure: solution-phase peptide synthesis; TBTU/DIPEA
# Settings: conjugation step
substance,measurement,value
Methyl-protected alkyl-peptidyl fluoroquinolone building block (11),conjugation yield,54%

# Reference: patent US20250295790A1 (Helmholtz-Zentrum für Infektionsforschung GmbH, priority 2021, published 2025)
